The results in this text go back to article PMC9499541, “Ait1 regulates TORC1 signaling and localization in budding yeast” (eLife, 2022).

The chains behind the UniProt entries cited, without tags or fusion partners.
UniProt P38873: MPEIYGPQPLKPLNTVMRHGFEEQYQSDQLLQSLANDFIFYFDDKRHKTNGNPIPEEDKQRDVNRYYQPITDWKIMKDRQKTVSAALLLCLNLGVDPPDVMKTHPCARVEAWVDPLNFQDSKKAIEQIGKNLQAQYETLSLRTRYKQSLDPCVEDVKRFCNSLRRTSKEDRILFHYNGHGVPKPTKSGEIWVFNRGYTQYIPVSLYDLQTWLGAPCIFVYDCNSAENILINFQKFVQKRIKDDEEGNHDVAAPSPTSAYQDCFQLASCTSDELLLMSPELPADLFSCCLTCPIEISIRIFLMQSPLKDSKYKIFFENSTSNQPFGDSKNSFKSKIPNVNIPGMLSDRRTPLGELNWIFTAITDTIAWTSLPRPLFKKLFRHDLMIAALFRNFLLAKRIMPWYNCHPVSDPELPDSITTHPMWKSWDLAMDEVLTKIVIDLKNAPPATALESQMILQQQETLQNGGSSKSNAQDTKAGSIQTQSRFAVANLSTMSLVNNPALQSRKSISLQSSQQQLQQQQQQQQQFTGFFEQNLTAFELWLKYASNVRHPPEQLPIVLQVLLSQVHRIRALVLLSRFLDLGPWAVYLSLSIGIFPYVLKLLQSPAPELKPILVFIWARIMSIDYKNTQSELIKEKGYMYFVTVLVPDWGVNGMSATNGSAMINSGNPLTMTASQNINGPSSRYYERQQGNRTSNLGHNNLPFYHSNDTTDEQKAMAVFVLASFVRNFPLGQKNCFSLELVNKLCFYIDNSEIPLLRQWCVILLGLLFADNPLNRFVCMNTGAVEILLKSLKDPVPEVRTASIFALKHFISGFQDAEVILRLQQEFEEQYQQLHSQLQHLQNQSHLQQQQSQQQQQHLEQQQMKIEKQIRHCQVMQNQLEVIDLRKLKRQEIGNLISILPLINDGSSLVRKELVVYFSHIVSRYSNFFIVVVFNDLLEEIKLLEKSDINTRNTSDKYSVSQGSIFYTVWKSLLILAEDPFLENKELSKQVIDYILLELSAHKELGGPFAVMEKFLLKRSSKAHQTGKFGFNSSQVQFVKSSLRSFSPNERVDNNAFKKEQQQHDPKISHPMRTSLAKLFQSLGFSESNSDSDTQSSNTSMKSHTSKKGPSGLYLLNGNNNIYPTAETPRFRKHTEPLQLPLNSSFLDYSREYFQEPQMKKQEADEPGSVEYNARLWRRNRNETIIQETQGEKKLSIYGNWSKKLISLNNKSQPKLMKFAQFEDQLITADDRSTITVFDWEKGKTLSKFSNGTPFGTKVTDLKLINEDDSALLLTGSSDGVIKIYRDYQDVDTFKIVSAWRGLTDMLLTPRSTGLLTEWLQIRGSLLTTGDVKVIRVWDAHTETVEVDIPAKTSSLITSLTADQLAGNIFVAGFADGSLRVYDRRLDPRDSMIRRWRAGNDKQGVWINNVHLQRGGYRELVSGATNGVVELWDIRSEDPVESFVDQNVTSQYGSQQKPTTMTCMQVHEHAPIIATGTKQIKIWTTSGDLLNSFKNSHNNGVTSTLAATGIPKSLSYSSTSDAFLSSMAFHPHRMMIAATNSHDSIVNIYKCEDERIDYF

These are yes or no findings as the source states them, for the method shown. In cells and extracts the contact can be indirect. Some binding calls cover weakened binding; strength is not graded here. Sequences can lack the tags named with a protein.

Assay [1] concerns the target Kog1-FLAG (S. cerevisiae) (UniProt P38873). In words: co-IP; Kog1-FLAG immunopurified on anti-FLAG beads after DSP crosslinking; blot with anti-GFP and anti-FLAG; with and without amino acids, long-term amino acid and glucose starvation, also with 4x protease inhibitors.
The target of another assay is T1, GFP-Ait1 (S. cerevisiae) (UniProt Q12301).
T1 sequence: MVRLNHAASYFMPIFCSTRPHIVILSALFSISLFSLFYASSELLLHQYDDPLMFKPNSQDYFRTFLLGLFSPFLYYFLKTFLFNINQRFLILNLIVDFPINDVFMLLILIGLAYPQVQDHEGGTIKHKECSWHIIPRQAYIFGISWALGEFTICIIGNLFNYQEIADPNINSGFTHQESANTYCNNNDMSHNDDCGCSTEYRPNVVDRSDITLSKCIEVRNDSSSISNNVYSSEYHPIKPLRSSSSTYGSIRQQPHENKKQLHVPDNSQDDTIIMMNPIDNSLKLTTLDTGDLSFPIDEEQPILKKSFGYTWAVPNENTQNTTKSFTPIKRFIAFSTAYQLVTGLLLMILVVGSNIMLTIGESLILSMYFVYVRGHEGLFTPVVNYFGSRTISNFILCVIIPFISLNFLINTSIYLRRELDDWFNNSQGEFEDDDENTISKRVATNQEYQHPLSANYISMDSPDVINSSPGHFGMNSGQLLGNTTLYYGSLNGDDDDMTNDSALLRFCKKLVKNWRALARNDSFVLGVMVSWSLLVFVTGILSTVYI
In words: co-IP; GFP-Ait1 or GFP-Ait1C3v2 immunopurified on anti-GFP beads in nonionic detergent (digitonin) without a crosslinker; blot with anti-Myc and anti-GFP; log phase, 30 min amino acid starvation, long-term amino acid and glucose starvation.

B1: GFP-Ait1 (natural protein, S. cerevisiae, UniProt Q12301 1-547, looked up)
chain: T1 sequence
notes: Ait1 (Ydl180w), GPCR-like protein of the vacuolar membrane, S. cerevisiae; The strain list is in Supplementary file 3; source: S. cerevisiae (W303) strain carrying GFP-Ait1, in lysate; not shown: GFP, N-terminal, kept
On to B1, for which the binding entry in assay [1] is “binds”.

B2: Gtr1-myc (natural protein, S. cerevisiae, UniProt Q00582 1-310, looked up)
chain: MSSNNRKKLLLMGRSGSGKSSMRSIIFSNYSAFDTRRLGATIDVEHSHLRFLGNMTLNLWDCGGQDVFMENYFTKQKDHIFQMVQVLIHVFDVESTEVLKDIEIFAKALKQLRKYSPDAKIFVLLHKMDLVQLDKREELFQIMMKNLSETSSEFGFPNLIGFPTSIWDESLYKAWSQIVCSLIPNMSNHQSNLKKFKEIMNALEIILFERTTFLVICSSNGENSNENHDSSDNNNVLLDPKRFEKISNIMKNFKQSCTKLKSGFKTLILNNNIYVSELSSNMVCFIVLKDMNIPQELVLENIKKAKEFFQ
notes: Gtr1, small GTPase (homolog of RagA/B), S. cerevisiae; also called Gtr1/2; source: S. cerevisiae (W303) strain carrying Gtr1-myc, in lysate
With B2, the binding result with GFP-Ait1 (S. cerevisiae) is “binds”.
